Measured values taken from doi:10.1101/2024.03.08.584044.
These are yes or no findings as the source states them, for the method shown. Binding seen in cells or lysates may run through a third protein. Binding can be weak; no strength is given. Where a sequence is shown, tags or fusion partners need not be part of it.

Biological target: Exo70-Flag (expressed in HEK293T cells) (UniProt Q9UPT5)
Experiment: co-IP

B1: Snapin-GFP (protein, UniProt O95295 1-136)
chain: MAGAGSAAVSGAGTPVAGPTGRDLFAEGLLEFLRPAVQQLDSHVHAVRESQVELREQIDNLATELCRINEDQKVALDLDPYVKKLLNARRRVVLVNNILQNAQERLRRLNHSVAKETARRRAMLDSGIYPPGSPGK
For B1, the binding was “binds”.
